The target of the test is T1, human EpCAM full-length protein (on MCF-7 and A431 cells) (human) (UniProt P16422).
T1 sequence: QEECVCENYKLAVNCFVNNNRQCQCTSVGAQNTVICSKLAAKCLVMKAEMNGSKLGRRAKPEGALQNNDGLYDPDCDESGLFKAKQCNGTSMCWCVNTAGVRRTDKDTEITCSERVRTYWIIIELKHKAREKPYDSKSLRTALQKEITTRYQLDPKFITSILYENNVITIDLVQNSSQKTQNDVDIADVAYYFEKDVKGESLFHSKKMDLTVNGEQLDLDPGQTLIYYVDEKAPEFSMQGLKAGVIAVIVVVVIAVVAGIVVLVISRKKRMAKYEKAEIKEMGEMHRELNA
The test can be described thus: flow cytometry (FACS) on MCF-7 and A431 cells, Alexa Fluor 488 goat anti-human IgG detection. In general terms: In flow cytometry, cells or beads pass a laser one at a time.

Results are given in words; binding and its absence hold for the method and conditions named. Some entries that bind do so weakly or less than the wild type.

B1: fully human antibody h1906 (antibody, human IgG1, kappa, V domains shown)
VH: QMQLVQSGAEVKKPGASVKVSCKASGYTFTSYDINWVRQATGQGLEWMGWMNPNSGNTGYAQKFQGRVTMTRNTSISTAYMELSSLRSEDTAVYYCARGVVVVVAATRGHYYYYYGMDVWGQGTTVTVSS
VL: DIQMTQSPSSLSASIGDRVSMTCRASQSVTKYLNWYQQTPGKPPKLLIFSASHLQTGVPSRFSGSGSGTDFTLTIDSLQPEDVATYYCQQSYSTPFTFGQGTNVEIKR
Regarding B1, the binding result is “binds”.

For the origin of these results see patent WO2020216210A1 (dated 2020).
